Results taken from patent US20240150302A1, “6-METHYLURACIL DERIVATIVES WITH ANTICHOLINESTERASE ACTIVITY AND THEIR USE” (priority 2021, published 2024).
Where a name gives a salt, the structure may show the parent alone.

Tests used:
[1] = system: transgenic mice with genotype B6C3-Tg(APP695)85Dbo Tg(PSENI)85Dbo; assay: "Rewarded alternation" test in a T-maze, genetic model of Alzheimer's disease; assay type: in vivo
Source text: At the beginning of the research, the age of the transgenic mice was 9 months.
At the beginning of the research, the age of the transgenic mice was 8 months.

[2] = system: transgenic mice of the B6C3-Tg(APP695)85Dbo Tg(PSENI)85Dbo genotype; assay: Number of amyloid plaques in the cortex, Thioflavin S staining of brain sections; assay type: in vivo
Description: The line was purchased at The Jackson Laboratory (USA) and kept in the “Pushchino” nursery for laboratory animals Pushchino, Moscow Region). At the beginning of the research, the age of the transgenic mice was 9 months.
(§1) An equivalent amount of water (Water (Tg+)) was orally administered to control groups of transgenic mice.
Amyloid-beta deposits were evaluated after sacrifice on mouse brain sections (20 μm) using the Thioflavin S fluorescent dye and the Olympus BX51W1 fluorescence microscope, by the method described in the article [http://library.med.utah.edu/WebPath/histhtml/manuals/manuals.html].
The line was purchased at The Jackson Laboratory (USA) and kept in the “Pushchino” nursery for laboratory animals Pushchino, Moscow Region). At the beginning of the research, the age of the transgenic mice was 8 months.
as §1

With `COc1cc2c(cc1OC)C(=O)C(CC1CCN(Cc3ccccc3)CC1)C2` (stereo not shown) [Donepezil hydrochloride] the “The percentage of trained mice” value ([1]; 1 mg/kg orally, Tg+ mice aged 9 months (Example 5)) was 50%, the “The average percentage of choosing the right direction” value ([1]; 1 mg/kg orally, Tg+ mice aged 9 months, 14 days (Example 5)) was 66 ± 2% and the “The percentage of trained mice” value ([1]; 5 mg/kg orally, Tg+ mice aged 8 months (Example 6)) was 70%. For the same compound, the “The average percentage of choosing the right direction” value ([1]; 5 mg/kg orally, Tg+ mice aged 8 months, 14 days (Example 6)) was 69 ± 2%, the “Number of amyloid plaques in the cortex” value ([2]; 1 mg/kg orally, Tg+ mice aged 9 months, 10x magnification (Example 7)) was 45 ± 2 per HPF and the “Number of amyloid plaques in the cortex” value ([2]; 5 mg/kg orally, Tg+ mice aged 8 months, 10x magnification (Example 8)) was 12 ± 1 per HPF. The “Effect on the number of amyloid plaques in the cortex” value ([2]; administered orally, Tg+ mice) was “did not significantly affect the number of amyloid plaques in the cortex”.
